Test results: patent US20160251438A1
No constants are given. Whether binding was seen depends on the method and setting. Some binding calls cover weakened binding; strength is not graded here.

Target: hGARP mut II / hTGF-β1 complex on the cell surface
Experiment: FACS, 293T, HA-tagged mutant + hTGFB1 [cont.) B]

B1: LHG-10 (antibody, human IgG1, V domains shown)
VH: EVQLVQPGAELRNSGASVKVSCKASGYRFTSYYIDWVRQAPGQGLEWMGRIDPEDGGTKYAQKFQGRVTFTADTSTSTAYVELSSLRSEDTAVYYCARNEWETVVVGDLMYEYEYWGQGTQVTVSS
VL: DIQMTQSPTSLSASLGDRVTITCQASQSISSYLAWYQQKPGQAPKLLIYGASRLQTGVPSRFSGSGSGTSFTLTISGLEAEDAGTYYCQQYDSLPVTFGQGTKVELK
- binding: binds
